Results: publication PMC6345199
No constants are given. Whether binding was seen depends on the method and setting. In cells and extracts the contact can be indirect. Some binding calls cover weakened binding; strength is not graded here.

By UniProt entry, the sequences of proteins in these tests, tags left out. Residues count along the entry.
UniProt Q9Y328: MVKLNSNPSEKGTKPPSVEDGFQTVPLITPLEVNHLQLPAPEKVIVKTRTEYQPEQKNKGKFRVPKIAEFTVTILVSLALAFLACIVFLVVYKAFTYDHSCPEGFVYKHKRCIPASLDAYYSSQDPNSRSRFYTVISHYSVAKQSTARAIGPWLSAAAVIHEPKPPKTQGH
UniProt P19490, residues 19-907: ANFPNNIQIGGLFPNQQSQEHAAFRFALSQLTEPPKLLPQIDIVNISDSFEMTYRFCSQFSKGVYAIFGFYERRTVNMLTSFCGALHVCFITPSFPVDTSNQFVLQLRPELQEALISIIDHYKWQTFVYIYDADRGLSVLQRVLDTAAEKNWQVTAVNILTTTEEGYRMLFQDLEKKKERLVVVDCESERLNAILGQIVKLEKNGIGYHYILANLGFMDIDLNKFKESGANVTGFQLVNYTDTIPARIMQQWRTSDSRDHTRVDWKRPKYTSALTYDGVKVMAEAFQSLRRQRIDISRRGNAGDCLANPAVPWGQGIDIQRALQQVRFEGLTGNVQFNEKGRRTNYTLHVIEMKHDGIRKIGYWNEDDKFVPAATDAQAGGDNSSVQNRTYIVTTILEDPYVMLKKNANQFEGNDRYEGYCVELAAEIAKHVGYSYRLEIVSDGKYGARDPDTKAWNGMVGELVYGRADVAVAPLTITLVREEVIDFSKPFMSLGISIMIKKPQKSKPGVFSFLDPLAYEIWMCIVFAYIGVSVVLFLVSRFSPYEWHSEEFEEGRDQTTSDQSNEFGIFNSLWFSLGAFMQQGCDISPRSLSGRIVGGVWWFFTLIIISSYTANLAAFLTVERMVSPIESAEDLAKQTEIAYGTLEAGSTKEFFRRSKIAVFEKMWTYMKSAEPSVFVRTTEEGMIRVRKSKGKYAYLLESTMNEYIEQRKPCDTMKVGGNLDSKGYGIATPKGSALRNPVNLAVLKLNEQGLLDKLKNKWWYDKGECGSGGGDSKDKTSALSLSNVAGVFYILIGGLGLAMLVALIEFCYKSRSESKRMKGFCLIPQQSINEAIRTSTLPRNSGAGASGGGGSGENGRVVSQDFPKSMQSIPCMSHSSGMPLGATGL

Tests used:
[1] = target: NSG2-mCherry (human neuron-specific gene 2 fused to mCherry) (human) (UniProt Q9Y328); test: co-IP; HEK293T co-expressing NSG2-mC and either YFP-GluA1 or GFP-GluA2; lysate in 50 mM Tris, 150 mM NaCl, 1 mM EDTA, 1% Triton X-100, pH 7.4; 1.5 mg total protein; NSG2-mC precipitated with anti-RFP/mCherry monoclonal antibody agarose; GluA1 and GluA2 detected by capillary immunoelectrophoresis (Wes)
[2] = target: YFP-GluA1 (UniProt P19490); test: co-IP; whole-cell lysates of HEK293T co-expressing unlabeled NSG2 with YFP-GluA1 or GFP-GluA2; 2 mg total protein with 4 ug mouse anti-GluA1 (RH95) or anti-GluA2 (6C4) overnight at 4 C, protein A/G agarose; NSG2 detected by capillary immunoelectrophoresis (Wes)

| binding [1] | binding [2] | Substance |
| --- | --- | --- |
| binds | – | YFP-GluA1 (from UniProt P19490 19-907) (receptor) |
| – | binds | unlabeled NSG2 (overexpressed) (from UniProt Q9Y328 1-171) |
